The values that follow come from paper doi:10.1101/2024.03.27.587014.

By UniProt entry, the sequences of proteins in these tests, tags left out.
UniProt P51818: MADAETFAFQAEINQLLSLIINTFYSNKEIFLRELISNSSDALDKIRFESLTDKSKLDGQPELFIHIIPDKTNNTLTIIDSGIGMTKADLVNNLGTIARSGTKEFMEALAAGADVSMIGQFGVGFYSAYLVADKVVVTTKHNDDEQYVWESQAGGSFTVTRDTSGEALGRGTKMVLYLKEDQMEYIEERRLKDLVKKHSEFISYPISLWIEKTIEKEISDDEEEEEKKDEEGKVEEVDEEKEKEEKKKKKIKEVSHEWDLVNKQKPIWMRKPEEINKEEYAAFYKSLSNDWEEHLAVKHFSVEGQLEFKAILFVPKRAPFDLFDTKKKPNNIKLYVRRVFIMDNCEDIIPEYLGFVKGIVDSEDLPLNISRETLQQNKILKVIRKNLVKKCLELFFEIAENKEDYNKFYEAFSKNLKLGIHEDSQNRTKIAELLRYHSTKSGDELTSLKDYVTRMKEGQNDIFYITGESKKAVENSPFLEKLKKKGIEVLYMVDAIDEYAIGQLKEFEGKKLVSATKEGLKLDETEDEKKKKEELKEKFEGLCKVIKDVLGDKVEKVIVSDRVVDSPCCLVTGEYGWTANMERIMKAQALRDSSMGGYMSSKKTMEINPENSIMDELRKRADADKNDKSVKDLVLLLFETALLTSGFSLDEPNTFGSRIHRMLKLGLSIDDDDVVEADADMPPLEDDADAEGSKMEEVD

No constants are given. Whether binding was seen depends on the method and setting. For some of these results: A result given as binding can be weak or reduced; the word gives no strength. For some of these results: Binding seen in cells or lysates may run through a third protein.

Assay [1] concerns the target AtRPAP3mut6 (yeast two-hybrid fusion) (Arabidopsis) (UniProt Q5XF05). Description: two-hybrid.
Assay [2] addresses AtRPAP3mut2 (yeast two-hybrid fusion) (Arabidopsis) (UniProt Q5XF05). Description: two-hybrid.
Assay [3] deals with YFP-AtRPAP3mut6 (Arabidopsis) (UniProt Q5XF05). Briefly: co-IP.
Assay [4] addresses YFP-AtRPAP3mut2 (Arabidopsis) (UniProt Q5XF05). Briefly: co-IP.

On to “AtHSP90.3 (yeast two-hybrid fusion) (from UniProt P51818 1-699)”, for which the binding entry in assay [1] is given as “no binding”; in assay [2], “binds”.

In the case of “myc-AtHSP90.3 (from UniProt P51818 1-699)”, the values for the binding entry in assay [3] and in assay [4] were “no binding” and “binds”, respectively.
